# Experimental data as given in the supplement of paper PMC8728848.
# The other results are listed elsewhere or left out.
# Legend:
# Experiment in all cases: glycan array binding signal (z-score within array); higher = stronger binding
# Conditions in all cases: glycan notation: IUPAC condensed, linker removed
# Neu5Ac(a2-8)Neu5Ac = target: Neu5Ac(a2-8)Neu5Ac
# Method in brief: (§1)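 Arrays were curated from the Consortium for Functional Glycomics database, 3228 in total, and kept only where the protein sequence was available. Binding is expressed as a within-array Z-score. This score was averaged across arrays of the same protein sequence at different concentrations or buffers and across linkers, and negative values can be read as non-binding.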
# [1] = target: Neu5Ac(a2-8)Neu5Ac(a2-3)Gal(b1-3)GalNAc(b1-4)[Neu5Ac(a2-3)]Gal(b1-4)Glc
# Method in brief: as §1
# [2] = target: Neu5Ac(a2-8)Neu5Ac(a2-3)Gal(b1-3)GalNAc(b1-4)[Neu5Ac(a2-8)Neu5Ac(a2-3)]Gal(b1-4)Glc
# Method in brief: as §1
# [3] = target: Neu5Ac(a2-8)Neu5Ac(a2-3)Gal(b1-4)Glc
# Method in brief: as §1
# [4] = target: Neu5Ac(a2-8)Neu5Ac(a2-3)Gal(b1-4)GlcNAc
# Method in brief: as §1
# [5] = target: Neu5Ac(a2-8)Neu5Ac(a2-3)[Gal(b1-3)GalNAc(b1-4)]Gal(b1-4)Glc
# Method in brief: as §1
# [6] = target: Neu5Ac(a2-8)Neu5Ac(a2-3)[GalNAc(b1-4)]Gal(b1-4)Glc
# Method in brief: as §1
# [7] = target: Neu5Ac(a2-8)Neu5Ac(a2-8)Neu5Ac
# Method in brief: as §1
# [8] = target: Neu5Ac(a2-8)Neu5Ac(a2-8)Neu5Ac(a2-3)Gal(b1-4)Glc
# Method in brief: as §1
# [9] = target: Neu5Ac(a2-8)Neu5Ac(a2-8)Neu5Ac(a2-3)[Gal(b1-3)GalNAc(b1-4)]Gal(b1-4)Glc
# Method in brief: as §1
# [10] = target: Neu5Ac(a2-8)Neu5Ac(a2-8)Neu5Ac(a2-3)[GalNAc(b1-4)]Gal(b1-4)Glc
# Method in brief: as §1
# [11] = target: Neu5Ac(a2-8)Neu5Ac(a2-8)Neu5Ac(a2-8)Neu5Ac(a2-3)[GalNAc(b1-4)]Gal(b1-4)Glc
# Method in brief: as §1
# [12] = target: Neu5Ac(a2-8)Neu5Gc(a2-3)Gal(b1-4)GlcNAc
# Method in brief: as §1
# [13] = target: Neu5Ac(b2-6)Gal(b1-4)GlcNAc
# Method in brief: as §1
# Neu5Ac(b2-6)GalNAc = target: Neu5Ac(b2-6)GalNAc
# Method in brief: as §1
# [14] = target: Neu5Ac9Ac(a2-3)Gal(b1-3)GlcNAc
# Method in brief: as §1
# [15] = target: Neu5Ac9Ac(a2-3)Gal(b1-4)GlcNAc
# Method in brief: as §1
# [16] = target: Neu5Ac9Ac(a2-6)Gal(b1-4)GlcNAc
# Method in brief: as §1
# [17] = target: Neu5Gc(a2-3)Gal(b1-3)GlcNAc
# Method in brief: as §1
# [18] = target: Neu5Gc(a2-3)Gal(b1-3)[Fuc(a1-4)]GlcNAc
# Method in brief: as §1
# Neu5Gc(a2-3)Gal(b1-4)Glc = target: Neu5Gc(a2-3)Gal(b1-4)Glc
# Method in brief: as §1
# [19] = target: Neu5Gc(a2-3)Gal(b1-4)GlcNAc
# Method in brief: as §1
# [20] = target: Neu5Gc(a2-3)Gal(b1-4)GlcNAc(b1-3)Gal(b1-4)GlcNAc(b1-2)Man(a1-3)[Neu5Gc(a2-3)Gal(b1-4)GlcNAc(b1-3)Gal(b1-4)GlcNAc(b1-2)Man(a1-6)]Man(b1-4)GlcNAc(b1-4)GlcNAc
# Method in brief: as §1
# [21] = target: Neu5Gc(a2-3)Gal(b1-4)[Fuc(a1-3)]GlcNAc
# Method in brief: as §1
# [22] = target: Neu5Gc(a2-6)Gal(b1-4)GlcNAc
# Method in brief: as §1
# Neu5Gc(a2-6)GalNAc = target: Neu5Gc(a2-6)GalNAc
# Method in brief: as §1
# [23] = target: Neu5Gc(a2-8)Neu5Ac(a2-3)Gal(b1-4)GlcNAc
# Method in brief: as §1
# [24] = target: Neu5Gc(a2-8)Neu5Gc(a2-3)Gal(b1-4)GlcNAc
# Method in brief: as §1
# [25] = target: Neu5Gc(a2-8)Neu5Gc(a2-3)Gal(b1-4)GlcNAc(b1-3)Gal(b1-4)GlcNAc
# Method in brief: as §1
# [26] = target: Neu5Gc(a2-8)Neu5Gc(a2-6)Gal(b1-4)GlcNAc
# Method in brief: as §1
# [27] = target: Neu5Gc(b2-6)Gal(b1-4)GlcNAc
# Method in brief: as §1
binder,measurement,setting,value
Clec39 (Caenorhabditis elegans) (protein) MTSFYDNSSSSSKPVPLKTSRAQKIQILIFDNWKLILYGAISTLILVLAIMFSTLFFALPAANCDENSEPTKYYTTNAEITTTITTTNQKTTSTASSHLTTISSSATQIYSESSSSSTSQSTFTQSPPEISTTTIAPSDFSCQHGFTLVNNKCWKLVTSNQARPDADKICNGYGGATLFSIKSEQDNRAMIHFVKGQDIDFLWSGLLCSAGEPISCIWDIENGSTANYSNFADGFPNIVYGNCVYFITSGDEAGQWGNEQCGQVMNFVCELPATFQGKDGCKNNYEKSCYLRFDLNLTVPQAQNFCLEKCANLVSIHSANEVRFIMTIYDFIGEILIGALAPAQDFIYWLDGTPANYNNLKFFYNSTCVHMTVAPGMQNVGKWFTRFCTETGKFLCKRSIKNSCT,glycan array binding signal (z-score),Neu5Ac(a2-8)Neu5Ac,-0.965
same,glycan array binding signal (z-score),[1],0.812
same,glycan array binding signal (z-score),[2],1.4
same,glycan array binding signal (z-score),[3],-1.08
same,glycan array binding signal (z-score),[4],-0.35
same,glycan array binding signal (z-score),[5],0.49
same,glycan array binding signal (z-score),[6],-0.697
same,glycan array binding signal (z-score),[7],-0.604
same,glycan array binding signal (z-score),[8],-0.211
same,glycan array binding signal (z-score),[9],0.076
same,glycan array binding signal (z-score),[10],0.422
same,glycan array binding signal (z-score),[11],0.885
same,glycan array binding signal (z-score),[12],0.21
same,glycan array binding signal (z-score),[13],-0.632
same,glycan array binding signal (z-score),Neu5Ac(b2-6)GalNAc,-1.21
same,glycan array binding signal (z-score),[14],-0.744
same,glycan array binding signal (z-score),[15],-0.091
same,glycan array binding signal (z-score),[16],-0.342
same,glycan array binding signal (z-score),[17],-0.46
same,glycan array binding signal (z-score),[18],1.01
same,glycan array binding signal (z-score),Neu5Gc(a2-3)Gal(b1-4)Glc,-0.318
same,glycan array binding signal (z-score),[19],-0.626
same,glycan array binding signal (z-score),[20],1.18
same,glycan array binding signal (z-score),[21],0.179
same,glycan array binding signal (z-score),[22],0.075
same,glycan array binding signal (z-score),Neu5Gc(a2-6)GalNAc,-0.101
same,glycan array binding signal (z-score),[23],-0.906
same,glycan array binding signal (z-score),[24],-0.057
same,glycan array binding signal (z-score),[25],-0.502
same,glycan array binding signal (z-score),[26],0.508
same,glycan array binding signal (z-score),[27],-0.162

# Three records picked at random from those above, as already listed:
binder,measurement,setting,value
Clec39 (Caenorhabditis elegans) (protein) MTSFYDNSSSSSKPVPLKTSRAQKIQILIFDNWKLILYGAISTLILVLAIMFSTLFFALPAANCDENSEPTKYYTTNAEITTTITTTNQKTTSTASSHLTTISSSATQIYSESSSSSTSQSTFTQSPPEISTTTIAPSDFSCQHGFTLVNNKCWKLVTSNQARPDADKICNGYGGATLFSIKSEQDNRAMIHFVKGQDIDFLWSGLLCSAGEPISCIWDIENGSTANYSNFADGFPNIVYGNCVYFITSGDEAGQWGNEQCGQVMNFVCELPATFQGKDGCKNNYEKSCYLRFDLNLTVPQAQNFCLEKCANLVSIHSANEVRFIMTIYDFIGEILIGALAPAQDFIYWLDGTPANYNNLKFFYNSTCVHMTVAPGMQNVGKWFTRFCTETGKFLCKRSIKNSCT,glycan array binding signal (z-score),[26],0.508
same,glycan array binding signal (z-score),Neu5Gc(a2-6)GalNAc,-0.101
same,glycan array binding signal (z-score),[3],-1.08
